From publication PMC12882203
Results are given in words; binding and its absence hold for the method and conditions named. In cells and extracts the contact can be indirect. A result given as binding can be weak or reduced; the word gives no strength.

The chains behind the UniProt entries cited, without tags or fusion partners. Where a name states a change or a piece, a line headed by the entry shows the natural chain unless it says otherwise.
UniProt Q8C6B2: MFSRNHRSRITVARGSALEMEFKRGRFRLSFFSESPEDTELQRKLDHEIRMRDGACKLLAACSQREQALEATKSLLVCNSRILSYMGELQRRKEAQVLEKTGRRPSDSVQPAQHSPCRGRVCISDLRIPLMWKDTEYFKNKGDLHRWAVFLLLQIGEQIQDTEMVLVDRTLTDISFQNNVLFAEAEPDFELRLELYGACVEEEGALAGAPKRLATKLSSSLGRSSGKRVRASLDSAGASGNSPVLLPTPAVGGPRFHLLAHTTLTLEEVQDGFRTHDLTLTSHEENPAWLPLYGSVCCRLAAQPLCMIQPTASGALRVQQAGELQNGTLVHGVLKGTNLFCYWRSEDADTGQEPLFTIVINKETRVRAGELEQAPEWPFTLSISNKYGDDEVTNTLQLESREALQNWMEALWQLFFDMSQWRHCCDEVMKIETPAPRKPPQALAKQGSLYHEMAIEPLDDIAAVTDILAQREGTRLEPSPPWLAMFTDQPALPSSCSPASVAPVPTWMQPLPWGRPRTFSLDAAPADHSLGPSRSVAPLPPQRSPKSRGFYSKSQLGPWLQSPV
UniProt Q9QUI0: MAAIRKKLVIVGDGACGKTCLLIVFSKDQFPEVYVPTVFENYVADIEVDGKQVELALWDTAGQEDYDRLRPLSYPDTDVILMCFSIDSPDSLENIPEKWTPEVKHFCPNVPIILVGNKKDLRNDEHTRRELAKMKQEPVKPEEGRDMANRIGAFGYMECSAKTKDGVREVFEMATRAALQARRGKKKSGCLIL

What was measured:
GST-Rhotekin RBD domain [1] = biological target: GST-Rhotekin RBD domain (UniProt Q8C6B2); test: pull-down; 2 ug recombinant GST fusion and glutathione-Sepharose beads mixed with BV2 cell lysate (cells with or without 1 uM MMF), 2 h at 4 C; lysis buffer 20 mM Tris-HCl pH 8.0, 150 mM NaCl, 1 mM EDTA, 0.5% NP-40, 1 mM DTT; immunoblot; only the target purified
GST-Rhotekin RBD domain [2] = biological target: GST-Rhotekin RBD domain (UniProt Q8C6B2); test: pull-down; 2 ug recombinant GST fusion and glutathione-Sepharose beads mixed with mouse brain lysate (P14, mice with or without MMF administration), 3 h at 4 C; lysis buffer 20 mM Tris-HCl pH 8.0, 150 mM NaCl, 1 mM EDTA, 0.5% NP-40, 1 mM DTT; immunoblot; only the target purified

- binding (GST-Rhotekin RBD domain [1]): binds
- binding (GST-Rhotekin RBD domain [2]): binds
Substance: RhoA (GTP-bound form) (from UniProt Q9QUI0 1-193)
